Measured values from patent publication US20190367620A1.
No constants are given. Whether binding was seen depends on the method and setting.

Biological target: cyFGFR1a-IIIc (cynomolgus monkey)
Experiment: SPR (Biacore 4000), antibody captured, His-tagged FGFR1 injected

- binding: no binding
B1: mAb #A08 (antibody, V domains shown)
VH: EVQLQESGPGLVKPSGTLSLTCAVSGGSISSNNWWSWVRQPPGKGLEWIGEIYHSGSTSYNPSLKSRVTISVDKSKNQFSLKLNSVTAADTAVYYCARGTDWFDPWGQGTLVTVSS
VL: QAVLTQPPSVSVAPGQTARITCGGNNIGSESVHWYQQKPGQAPVLVVYDDSDRPSGIPERFSGSNSGNTATLTISRVEAGDEADYYCQVWDSTSDHRVFGGGTKLTVL
